Measurements reported in publication PMC9894557, “The opportunistic pathogen Pseudomonas aeruginosa exploits bacterial biotin synthesis pathway to benefit its infectivity” (PLOS Pathogens, 2023).
No constants are given. Whether binding was seen depends on the method and setting.

Molecular target: Pseudomonas aeruginosa BioH (PA0502), wild type (Pseudomonas aeruginosa PAO1) (UniProt Q9I616)
Test: SEC; gel filtration on a Superdex 75 column; Streptococcus suis FakB2 (~33 kDa, known monomer) as size control; both purified

Pseudomonas aeruginosa BioH (PA0502), wild type (from UniProt Q9I616 1-240) (enzyme)
binding: no binding
